Data on 1 compound can be found in patent publication US20080293796A1, “Parenteral and oral formulations of benzimidazoles” (priority 2003, published 2008).

The data set can be described thus: Homogeneity study of Mbz distribution in rat organs. The conditions noted are these: for Site Variations: n = 3; for Mean radioactivity: three sites.

As to `COC(=O)Nc1nc2ccc(C(=O)c3ccccc3)cc2[nH]1` [MZ, methyl 5-benzoylbenzimidazole-2-carbamate], the “Site Variations” value runs as follows: (rat brain) 7.96%; (rat heart) 14.02%; (rat kidneys) 3.01%; (rat liver) 3.44%; (rat lung) 5.67%; (rat spleen) 5.15%. For the same compound, the Mean radioactivity is, setting by setting: (rat brain) 358.27 CPM/0.2 g; (rat heart) 1300.72 CPM/0.2 g; (rat kidneys) 1192.13 CPM/0.2 g; (rat liver) 41978.90 CPM/0.2 g; (rat lung) 22429.33 CPM/0.2 g; (rat spleen) 31279.43 CPM/0.2 g.
